Laboratory results as given in patent publication US5686416A, “Increasing blood-brain barrier permeability with permeabilizer peptides” (priority 1993, dated 1997).

System: blood-brain barrier
Experiment: Uptake of radiolabelled substances of different molecular weights into the brain (Table I)
Settings: mice, 10 minutes, mean ± s.d.
Method: The animals were euthanatized 10 minutes after the co-administration and the radioactivity present in brain was measured as described previously for ^14 C sucrose.

- % Injected Dose, + A-7 (dose 1 μg) (labelled molecule i.v. with 1 μg permeabilizer A-7 (footnote *)): 0.140 ± 0.082 % Injected Dose
- % Injected Dose, Control (labelled molecule i.v. with saline): 0.085 ± 0.051 % Injected Dose
Compound: CCC[C@@H]1C[C@@H](C(=O)N[C@@H]([C@H]2O[C@H](SC)[C@H](O)[C@@H](O)[C@H]2O)[C@H](C)Cl)N(C)C1 [^14 C-Clindamycin, Clindamycin]
